{
  "source": "PubChem BioAssay AID540276",
  "about": "(National Center for Advancing Translational Sciences (NCATS), 2011)",
  "note": "The whole screen tested about 300,000 compounds, of which about 5,400 (1.8%) were called active. The inconclusive results got no clear call from the source; some entries with a clear call stand among them for comparison. The call rests on the fitted dose curve; tested in HEK293 cells. A potency beside an inconclusive call is a rough fit, not a confirmed value. On the % scale 0 is the no-effect control and ±100 the full control effect; potency means the concentration at half of the fitted maximal effect.",
  "data": [
    {"assay": "qHTS for inhibitors of binding or entry into cells for Marburg Virus", "conditions": "Marburg virus pseudotyped entry inhibition, cell reporter; activity change, negative = inhibition: at 37.8 µM (top of the series) unless noted", "values": [
      {"compound": "c1ccc2c(c1)oc1c(N3CCN(Cc4ccc5c(c4)OCO5)CC3)ncnc12", "Potency": "inconclusive: 4.11 µM [inhibitor, full curve, poor fit]"},
      {"compound": "COCC(C)n1c(C)cc(C(=O)CSc2nc3ccccc3c(=O)[nH]2)c1C", "note": "(stereo unspecified)", "Potency": "inconclusive: 32.6 µM [inhibitor, single point]"},
      {"compound": "O=C(O)c1ccc(Oc2c(C(F)(F)F)oc3cc(O)ccc3c2=O)cc1", "Potency": "inconclusive: 16.4 µM [activator, partial curve, poor fit]"},
      {"compound": "COc1ccc2c(c1)CC/C(=C\\C=C\\c1ccccc1)C2=O", "Potency": "inconclusive: 29.1 µM [inhibitor, single point]"},
      {"compound": "N#CC(=C(O)CN1CCN(c2ccccc2F)CC1)c1nc(-c2ccccc2)cs1", "Potency": "inconclusive: 35.5 µM [inhibitor, single point]"},
      {"compound": "CSC(=S)N/N=C/c1c[nH]c2ccccc12", "Potency": "inconclusive: 22.4 µM [activator, partial curve, poor fit]"},
      {"compound": "COc1ccc(N(C)C(=S)Nc2ccc3nc(C)c(C)nc3c2)cc1", "Potency": "inconclusive: 0.891 µM [activator, full curve, poor fit]"},
      {"compound": "COC(=O)C1=C(C)N(CC2CC2)C(=O)N[C@H]1c1ccccc1", "Potency": "inactive"},
      {"compound": "CSc1cccc(NC(=O)CSc2ccc(Cl)cc2)c1", "Potency": "inconclusive: 35.5 µM [inhibitor, single point]"},
      {"compound": "Cn1cccc1C(=O)NC(=O)COC(=O)Cc1coc2ccc3ccccc3c12", "Potency": "inconclusive: 29.1 µM [inhibitor, single point]"},
      {"compound": "C[C@]12C[C@@](C)(C=C1C=Cc1ccc(C(F)(F)F)cc1)C(=O)C[C@H]2c1ccc(C(F)(F)F)cc1", "Potency": "inconclusive: 5.31 µM [activator, single point]"},
      {"compound": "Brc1cc2c(cc1/C=N/Nc1nc(N3CCOCC3)nc(N3CCOCC3)n1)OCO2", "Potency": "inconclusive: 35.5 µM [inhibitor, single point]"},
      {"compound": "O=C(Cn1c(NCCCO)nc2ccccc21)c1ccc(Cl)cc1Cl", "Potency": "inconclusive: 35.5 µM [inhibitor, single point]"},
      {"compound": "CCN(CC)S(=O)(=O)c1cccc(C(=O)N/N=C/c2ccc([N+](=O)[O-])o2)c1", "Potency": "inconclusive: 8.91 µM [inhibitor, partial curve, poor fit]"},
      {"compound": "Cc1ccc(S(=O)(=O)/N=C2/C=C(Sc3ncn[nH]3)C(=O)c3ccccc32)c(C)c1", "Potency": "inconclusive: 8.2 µM [inhibitor, partial curve, poor fit]"},
      {"compound": "O=C(O)C(=Cc1ccccc1[N+](=O)[O-])c1ccccc1", "Potency": "inconclusive: 17.8 µM [activator, single point]"},
      {"compound": "COc1ccc2nc(C)cc(NCCN3CCOCC3)c2c1", "activity change, negative = inhibition": "inactive: -25.4% [at 46.1 µM]"},
      {"compound": "O=[N+]([O-])c1ccc2c(c1)oc1ccccc12", "activity change, negative = inhibition": "inactive: -16.5%"},
      {"compound": "Cc1cc2c(nc1C)CCCCN2C[C@H](C)O/N=C/[C@@H](C)[C@H](OCc1ccccc1)C(C)C", "Potency": "inconclusive: 0.188 µM [inhibitor, full curve, poor fit]"},
      {"compound": "Cc1ccc(C2=NN(C(=S)Nc3ccccc3)C(c3ccco3)C2)cc1", "note": "(stereo unspecified)", "activity change, negative = inhibition": "inactive: 3.16%"},
      {"compound": "CCOC(=O)c1cn(Cc2ccc(C)cc2)nn1", "activity change, negative = inhibition": "inactive: 4.05%"},
      {"compound": "CC(=O)N(C1=C(Cl)C(=O)c2ccccc2C1=O)c1ccc(C(=O)O)cc1", "Potency": "inconclusive: 35.5 µM [inhibitor, single point]"},
      {"compound": "CC(CC(=O)C1C(C)C=CCC1(C)C)NNC(N)=O", "note": "(stereo unspecified)", "Potency": "inconclusive: 1.41 µM [inhibitor, partial curve, poor fit]"},
      {"compound": "O=C(Cc1noc2ccccc12)Nc1ccc(Cl)cc1", "Potency": "inconclusive: 0.92 µM [activator, full curve, poor fit]"},
      {"compound": "CCOc1ncccc1C(=O)Nc1ccc(OC)c(S(=O)(=O)N2CCCCC2)c1", "activity change, negative = inhibition": "inactive: -1.97% [at 46.1 µM]"},
      {"compound": "CCCCCCn1nc(C(=O)OCC(=O)c2c(N)n(C)c(=O)n(C)c2=O)c2ccccc2c1=O", "Potency": "inconclusive: 35.5 µM [inhibitor, single point]"},
      {"compound": "Cn1cc(Br)c(C(=O)Nc2sc3c(c2C(N)=O)CCCC3)n1", "Potency": "inconclusive: 3.98 µM [activator, single point]"},
      {"compound": "CNc1nc2ccccc2n1CC(=O)c1ccccc1", "activity change, negative = inhibition": "inactive: 10.3%"},
      {"compound": "COc1ccc(-n2c(N)c(C(=O)NCC3CCCO3)c3nc4ccccc4nc32)c(OC)c1", "note": "(stereo unspecified)", "Potency": "inconclusive: 1.16 µM [activator, single point]"},
      {"compound": "CC(C)c1ccc2oc(=O)cc(CN3CCCCC3)c2c1", "Potency": "inconclusive: 15.8 µM [inhibitor, single point]"},
      {"compound": "CSc1cccc(NC(=S)N(CCCN2CCCC(C)C2)Cc2cccs2)c1", "note": "(stereo unspecified)", "Potency": "inconclusive: 28.2 µM [inhibitor, partial curve, poor fit]"},
      {"compound": "O=C(CSc1ncc(-c2ccc(F)cc2)n1Cc1ccco1)Nc1nccs1", "Potency": "inconclusive: 5.8 µM [inhibitor, full curve, poor fit]"},
      {"compound": "O=C(CCN1CCN(Cc2ccccc2)CC1)Nc1ccc(OCc2ccccc2)cc1", "Potency": "inconclusive: 35.5 µM [inhibitor, single point]"},
      {"compound": "COc1ccc(NC(=O)C[C@H]2C(=O)N(c3ccccc3)C[C@@H]2C)cc1", "Potency": "inconclusive: 11.2 µM [inhibitor, partial curve, poor fit]"},
      {"compound": "Cc1nc2c(O)c3c(c(O)c2nc1C)C1C=CC3CC1", "Potency": "inconclusive: 3.55 µM [inhibitor, full curve, poor fit]"},
      {"compound": "Cc1cc(SCC(=O)NN=C2CCN(C(C)C)CC2)c(C)cc1Br", "Potency": "inconclusive: 35.5 µM [activator, single point]"},
      {"compound": "CCCCCn1c2c(c(=N)c3ccccc31)CCC2", "Potency": "inconclusive: 8.91 µM [inhibitor, partial curve, poor fit]"},
      {"compound": "COc1cc(OC)c(C(=O)Nc2cccc(C(C)=O)c2)cc1OC", "Potency": "inconclusive: 0.631 µM [activator, single point]"},
      {"compound": "CC(Oc1ccc(F)cc1)C(=O)Nc1nc(-c2ccccn2)cs1", "note": "(stereo unspecified)", "Potency": "inconclusive: 10 µM [inhibitor, partial curve, poor fit]"},
      {"compound": "CCCCc1nc2ccccc2c(=O)n1NC(=O)c1c(O)c2ccccc2n(C)c1=O", "Potency": "inconclusive: 0.891 µM [inhibitor, full curve, poor fit]"},
      {"compound": "O=C(O)C1CCCN1c1ncnc2c1oc1ccccc12", "note": "(stereo unspecified)", "activity change, negative = inhibition": "inactive: 0.472%"},
      {"compound": "CC(=O)c1ccc(OCCN2CCOCC2)cc1", "Potency": "inconclusive: 29.1 µM [activator, single point]"},
      {"compound": "c1ccc(-c2noc(COc3ccc4c(c3)OCO4)n2)cc1", "activity change, negative = inhibition": "inactive: -12.6%"},
      {"compound": "Cc1c(Cl)cccc1NC(=O)C1C2C=CC(C2)C1C(=O)O", "note": "(stereo unspecified)", "Potency": "inconclusive: 6.31 µM [inhibitor, single point]"},
      {"compound": "COc1cccc(C(=O)Nc2ccc3ccccc3c2)c1", "Potency": "inconclusive: 10 µM [inhibitor, single point]"},
      {"compound": "CC1CCN(C(=O)COC(=O)c2cc(Cl)cc(Cl)c2N)CC1", "Potency": "inconclusive: 6.51 µM [inhibitor, single point]"},
      {"compound": "Cc1ccc(C)c(Nc2nn3c(=O)c4cc5c(cc4nc3s2)OCO5)c1", "Potency": "inconclusive: 14.1 µM [activator, single point]"},
      {"compound": "CC(NC(=O)Cc1cccc(C(F)(F)F)c1)c1ccc(F)cc1", "note": "(stereo unspecified)", "activity change, negative = inhibition": "inactive: 6.67% [at 46.1 µM]"},
      {"compound": "O=C(O)c1cc(NS(=O)(=O)c2ccc(N3CCCCC3)c([N+](=O)[O-])c2)cc(C(=O)O)c1", "Potency": "inconclusive: 15.8 µM [activator, single point]"},
      {"compound": "CCOc1ccc(CCNC(=O)c2ccc3c(c2)N(Cc2ccccc2F)C(=O)c2ccccc2S3=O)cc1OCC", "note": "(stereo unspecified)", "Potency": "inconclusive: 10 µM [inhibitor, partial curve]"},
      {"compound": "Cc1ccc(N=c2ssnc2Cl)cc1", "activity change, negative = inhibition": "inactive: -23.6%"},
      {"compound": "COCCc1ncc(CN2CCC(C(=O)Nc3ccc(-n4cccn4)cc3)CC2)cn1", "Potency": "inconclusive: 0.794 µM [activator, partial curve]"},
      {"compound": "CCCNC1=C(N(C(C)=O)c2cccc(F)c2)C(=O)c2ccccc2C1=O", "Potency": "inconclusive: 8.91 µM [inhibitor, partial curve, poor fit]"},
      {"compound": "O=C(Nc1cnn(Cc2ccc(Cl)cc2Cl)c1)c1noc2c1CCc1ccccc1-2", "Potency": "inconclusive: 35.5 µM [inhibitor, single point]"},
      {"compound": "O=C(Cn1c(=O)nc(-c2ccccc2)c2cc(Cl)ccc21)NCc1ccc(Cl)cc1", "Potency": "inconclusive: 31.6 µM [activator, single point]"},
      {"compound": "CC(NC(=S)NCCc1ccccc1)C(c1cccs1)N1CCN(C)CC1", "note": "(stereo unspecified)", "Potency": "inconclusive: 18.4 µM [inhibitor, single point]"},
      {"compound": "CCOC(=O)c1[nH]c(C)c(C(=O)c2cc(F)ccc2F)c1C", "Potency": "inconclusive: 1.3 µM [inhibitor, full curve]"},
      {"compound": "O=C(COC(=O)CCC(=O)c1cccs1)NCCc1ccccc1", "activity change, negative = inhibition": "inactive: 3.91% [at 46.1 µM]"},
      {"compound": "CC(NS(=O)(=O)c1ccccc1)C(c1cccs1)N1CCN(c2ccccc2)CC1", "note": "(stereo unspecified)", "Potency": "inconclusive: 29.1 µM [inhibitor, single point]"},
      {"compound": "Nc1nc(Nc2ccccc2)nc2c1ncn2[C@@H]1O[C@H](CO)[C@@H](O)[C@H]1O", "activity change, negative = inhibition": "inactive: 11%"},
      {"compound": "CN(C)C(CNC(=S)Nc1ccccc1)c1cccnc1", "note": "(stereo unspecified)", "Potency": "inconclusive: 35.5 µM [activator, single point]"},
      {"compound": "CN(C)/C=C1\\C(=O)N(c2ccc(Cl)cc2)CS1(=O)=O", "Potency": "inconclusive: 16.4 µM [activator, single point]"},
      {"compound": "CCOCCN1CCN(c2c(C)c(C)nc3cc(-c4cc(OC)cc(OC)c4)nn23)CC1", "Potency": "inactive"},
      {"compound": "O=S(=O)(NCCOCC(F)(F)F)c1ccc2oc3ccccc3c2c1", "Potency": "inconclusive: 35.5 µM [inhibitor, single point]"},
      {"compound": "O=C(/C=C/c1ccco1)N1CCN(C/C=C/c2ccccc2)CC1", "activity change, negative = inhibition": "inactive: -0.25%"},
      {"compound": "COc1ccc(-n2cnc3ccccc32)cc1", "Potency": "inconclusive: 11.6 µM [activator, partial curve, poor fit]"}
    ]}
  ]
}
